Assay results reported in patent US20100240040A1, “METHOD FOR SCREENING FOR SELECTIVE MODULATOR OF THE NF-KB PATHWAY ACTIVATION” (INSTITUT PASTEUR, priority 2007, published 2010).
These are yes or no findings as the source states them, for the method shown. In cells and extracts the contact can be indirect. Some entries that bind do so weakly or less than the wild type.

Chains of the proteins cited; added tags and fusions are not shown. Lines headed by an entry give the natural chain unless they say otherwise; changes in a name come on top.
UniProt O88522: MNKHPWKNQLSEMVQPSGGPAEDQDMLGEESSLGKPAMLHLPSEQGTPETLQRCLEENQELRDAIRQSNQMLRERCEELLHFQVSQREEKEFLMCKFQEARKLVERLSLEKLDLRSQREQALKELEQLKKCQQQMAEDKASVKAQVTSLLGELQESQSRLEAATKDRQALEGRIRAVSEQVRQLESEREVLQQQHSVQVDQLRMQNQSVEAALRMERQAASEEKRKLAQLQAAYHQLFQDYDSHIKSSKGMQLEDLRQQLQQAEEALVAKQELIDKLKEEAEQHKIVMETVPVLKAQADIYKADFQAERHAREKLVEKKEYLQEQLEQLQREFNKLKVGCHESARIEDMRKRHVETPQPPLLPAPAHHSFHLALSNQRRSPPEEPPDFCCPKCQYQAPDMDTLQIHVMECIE

Assays:
Flag-NEMO (murine) [1] = target: Flag-NEMO (murine) (UniProt O88522); assay: refers to the pull-down of Example 3
Flag-NEMO (murine) [2] = target: Flag-NEMO (murine) (UniProt O88522); assay: cells treated with 20 µM labelled peptide, anti-Flag pull-down of Flag-NEMO, Bodipy fluorescence on beads
Flag-NEMO (murine) [3] = target: Flag-NEMO (murine) (UniProt O88522); assay: cells treated with labelled peptide, anti-Flag pull-down of Flag-NEMO, Bodipy fluorescence on beads

Measured: binding

CRQIKIWFQNRRMKWKKLKAQADIYKARFQAERHAREK (Bodipy on the N-terminal cysteine (maleimide coupling)) [BA-DR NLM]
binds: all assays above
